PubChem BioAssay AID1259424 – University of Nebraska Medical Center – 2018

- Aim: 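Find knockdowns that reproduce the expression shifts seen after KSR1 loss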 (primary screen)
- System: human HCT116 colon cancer cells
- Reagent: siRNA pool against human genes, 50 nM
- Read-out: 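Log2 levels of six mRNAs (branched-DNA multiplex), adjusted by two reference genes and the non-targeting median, then scored against the average KSR1 knockdown pattern as Pearson r and euclidean distance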
- Direction: mean correlation with KSR1 profile and KSR1 correlation: higher = expression change more like KSR1 knockdown; mean distance from KSR1 profile: higher = expression change less like KSR1 knockdown
Here is one part, drawn at random, of about 14,000 deposited reagents. 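Higher correlation or smaller distance means closer resemblance to KSR1 loss; control wells, including KSR1 knockdowns, recur on many plates.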 Reagents against one gene are numbered here. Not stated in the record: the time to read-out.

gene | pool no. | mean correlation with KSR1 profile | mean distance from KSR1 profile | KSR1 correlation, replicate 1 | KSR1 correlation, replicate 2 | KSR1 correlation, replicate 3
ZDHHC3 (zDHHC palmitoyltransferase 3) | 1 | -0.579 | 0.886 | -0.798 | 0.785 | -0.218
ZDHHC3 (zDHHC palmitoyltransferase 3) | 2 | 0.455 | 5.02 | 0.583 | 0.394 | 0.356
HTR3B (5-hydroxytryptamine receptor 3B) | 1 | -0.0222 | 3.36 | 0.379 | 0.23 | -0.504
CAMK2A (calcium/calmodulin dependent protein kinase II alpha) | 1 | -0.0221 | 1.97 | 0.000679 | 0.04 | -0.411
MAT2A (methionine adenosyltransferase 2A) | 1 | -0.201 | 1.7 | -0.318 | -0.435 | -0.172
FBXO10 (F-box protein 10) | 1 | -0.517 | 1.52 | -0.648 | -0.565 | -0.37
LARS1 (leucyl-tRNA synthetase 1) | 1 | -0.0965 | 3.35 | -0.118 | 0.0534 | -0.0451
CADM1 (cell adhesion molecule 1) | 1 | 0.0346 | 1.31 | 0.356 | -0.444 | -0.0749
CYP27B1 (cytochrome P450 family 27 subfamily B member 1) | 1 | -0.407 | 3.48 | -0.418 | -0.493 | -0.398
MSTO1 (misato mitochondrial distribution and morphology regulator 1) | 1 | 0.00907 | 2.01 | 0.137 | -0.0764 | -0.252
NKAPD1 (NKAP domain containing 1) | 1 | -0.514 | 2.29 | -0.457 | -0.59 | -0.537
RPS8 (ribosomal protein S8) | 1 | -0.124 | 2.17 | -0.168 | -0.209 | 0.0107
B3GNT3 | 1 | -0.502 | 2.87 | -0.56 | -0.206 | -0.657
DUSP5 (dual specificity phosphatase 5) | 1 | 0.599 | 1.11 | 0.624 | 0.514 | -0.0406
SKIC2 (SKI2 subunit of superkiller complex) | 1 | 0.12 | 1.11 | 0.0751 | -0.13 | 0.448
ZFHX4 (zinc finger homeobox 4) | 1 | 0.506 | 2.65 | 0.552 | 0.531 | 0.481
PCCA (propionyl-CoA carboxylase subunit alpha) | 1 | -0.374 | 1.79 | -0.468 | -0.356 | -0.337
PERM1 (PPARGC1 and ESRR induced regulator, muscle 1) | 1 | 0.27 | 2.41 | 0.222 | 0.125 | 0.206
AFF2 (ALF transcription elongation factor 2) | 1 | -0.369 | 2.14 | -0.479 | -0.617 | -0.498
TXK (TXK tyrosine kinase) | 1 | 0.742 | 1.52 | 0.833 | 0.855 | 0.173
PFKFB4 (6-phosphofructo-2-kinase/fructose-2,6-biphosphatase 4) | 1 | 0.22 | 1.54 | 0.88 | 0.276 | -0.0117
LTV1 (LTV1 ribosome biogenesis factor) | 1 | 0.171 | 1.92 | 0.29 | 0.219 | 0.153
MTRF1 (mitochondrial translation release factor 1) | 1 | 0.175 | 1.29 | 0.27 | 0.632 | 0.0555
FIZ1 (FLT3 interacting zinc finger 1) | 1 | 0.202 | 3.55 | 0.289 | 0.0491 | 0.000139
SLC47A1 | 1 | -0.471 | 2.52 | -0.575 | -0.502 | -0.404
PGLS (6-phosphogluconolactonase) | 1 | 0.363 | 1.19 | 0.578 | 0.308 | -0.0645
CD200 (CD200 molecule) | 1 | -0.757 | 1.63 | -0.237 | -0.732 | -0.632
OGFOD3 | 1 | 0.231 | 1.66 | 0.326 | 0.388 | -0.167
NECTIN2 (nectin cell adhesion molecule 2) | 1 | -0.0307 | 2.11 | 0.0315 | -0.0347 | -0.211
FRMD4B (FERM domain containing 4B) | 1 | -0.283 | 3.45 | -0.112 | -0.45 | -0.214
NCBP2 (nuclear cap binding protein subunit 2) | 1 | 0.515 | 1.58 | 0.624 | 0.416 | 0.427
KCNIP1 (potassium voltage-gated channel interacting protein 1) | 1 | -0.14 | 1.12 | -0.229 | -0.648 | -0.196
KISS1 (KiSS-1 metastasis suppressor) | 1 | 0.642 | 1.39 | -0.0513 | 0.564 | 0.709
TULP4 (TUB like protein 4) | 1 | 0.085 | 1.89 | 0.0866 | 0.0236 | 0.127
SLC12A1 | 1 | 0.509 | 1.01 | 0.338 | 0.498 | 0.855
CDKN1B (cyclin dependent kinase inhibitor 1B) | 1 | 0.762 | 1.7 | 0.701 | 0.684 | 0.768
ALPK1 (alpha kinase 1) | 1 | -0.353 | 2.11 | -0.2 | -0.291 | -0.409
SF3B6 (splicing factor 3b subunit 6) | 1 | -0.55 | 3.38 | -0.443 | -0.654 | -0.52
HYI (hydroxypyruvate isomerase (putative)) | 1 | 0.237 | 1.88 | 0.243 | 0.296 | 0.132
ARF5 (ARF GTPase 5) | 1 | -0.0993 | 1.83 | -0.151 | -0.196 | -0.285
TNNT1 (troponin T1, slow skeletal type) | 1 | -0.682 | 2.74 | -0.656 | -0.641 | -0.705
IMPG1 (interphotoreceptor matrix proteoglycan 1) | 1 | -0.00404 | 2.17 | 0.119 | -0.0491 | -0.26
STK4 (serine/threonine kinase 4) | 1 | 0.233 | 1.78 | 0.432 | 0.269 | -0.0358
CHAF1A (chromatin assembly factor 1 subunit A) | 1 | 0.473 | 2.95 | 0.325 | 0.504 | 0.552
GLRA3 (glycine receptor alpha 3) | 1 | 0.199 | 1.72 | 0.206 | 0.259 | 0.0549
GSTT2 (glutathione S-transferase theta 2 (gene/pseudogene)) | 1 | -0.126 | 1.69 | -0.142 | -0.21 | -0.0665
PRKCQ (protein kinase C theta) | 1 | 0.204 | 1.68 | 0.203 | 0.143 | 0.214
SOD3 (superoxide dismutase 3) | 1 | -0.0226 | 1.22 | 0.262 | -0.202 | -0.0488
OR1D5 (olfactory receptor family 1 subfamily D member 5) | 1 | -0.178 | 2.83 | 0.0279 | -0.173 | -0.0735
DCAF5 (DDB1 and CUL4 associated factor 5) | 1 | 0.655 | 1.71 | 0.559 | 0.67 | 0.635
